# Assay results as given in the supplement of paper PMC8728848.
# This is one part of the list.
# B1: EUL D1A second (Oryza sativa) (protein)
# chain: GAATACTIGGVPVHTVRVFSAAGEDYCLTVRNGTACLAPKNPRDDYQHWIKDMRHSNKIRDEEGYPAFALVNKVTGEAIKHSTGQGHPVKLVPYNPEYQDESVLWTESKDVGKGFRCIRMVNNIYLNFDAFHGDKDHGGIHDGTEIVLWKWCEGDNQRWKILPWILEQKLISEEDLNSAVDHHHHHH
# Legend:
# Test in all cases: glycan array binding signal (z-score within array); higher = stronger binding
# Conditions in all cases: glycan notation: IUPAC condensed, linker removed
# [1] = molecular target: Fuc(a1-2)Gal6S(b1-3)GlcNAc6S
# Procedure, shortened: (§1)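 Glycan array binding is given as a within-array Z-score, which can be read as non-binding when negative. The arrays, 3228 of them, came from the Consortium for Functional Glycomics database and were retained only where the protein sequence was available. Z-scores were averaged across arrays of the same protein sequence at different concentrations or buffers and across linkers.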
# [2] = molecular target: Fuc(a1-2)Gal6S(b1-4)Glc
# Procedure, shortened: as §1
# [3] = molecular target: Fuc(a1-2)Gal6S(b1-4)Glc6S
# Procedure, shortened: as §1
# [4] = molecular target: Fuc(a1-2)[Gal(a1-3)]Gal
# Procedure, shortened: as §1
# [5] = molecular target: Fuc(a1-2)[Gal(a1-3)]Gal(b1-3)GalNAc
# Procedure, shortened: as §1
# [6] = molecular target: Fuc(a1-2)[Gal(a1-3)]Gal(b1-3)GalNAc(b1-3)Gal(a1-4)Gal(b1-4)Glc
# Procedure, shortened: as §1
# [7] = molecular target: Fuc(a1-2)[Gal(a1-3)]Gal(b1-3)GlcNAc
# Procedure, shortened: as §1
# [8] = molecular target: Fuc(a1-2)[Gal(a1-3)]Gal(b1-3)GlcNAc(b1-2)Man(a1-3)[Fuc(a1-2)[Gal(a1-3)]Gal(b1-3)GlcNAc(b1-2)Man(a1-6)]Man(b1-4)GlcNAc(b1-4)GlcNAc
# Procedure, shortened: as §1
# [9] = molecular target: Fuc(a1-2)[Gal(a1-3)]Gal(b1-3)GlcNAc(b1-2)Man(a1-3)[Fuc(a1-2)[Gal(a1-3)]Gal(b1-3)GlcNAc(b1-2)Man(a1-6)]Man(b1-4)GlcNAc(b1-4)[Fuc(a1-6)]GlcNAc
# Procedure, shortened: as §1
# [10] = molecular target: Fuc(a1-2)[Gal(a1-3)]Gal(b1-3)GlcNAc(b1-3)GalNAc
# Procedure, shortened: as §1
# [11] = molecular target: Fuc(a1-2)[Gal(a1-3)]Gal(b1-3)GlcNAc(b1-6)GalNAc
# Procedure, shortened: as §1
# [12] = molecular target: Fuc(a1-2)[Gal(a1-3)]Gal(b1-4)Glc
# Procedure, shortened: as §1
# [13] = molecular target: Fuc(a1-2)[Gal(a1-3)]Gal(b1-4)GlcNAc
# Procedure, shortened: as §1
# [14] = molecular target: Fuc(a1-2)[Gal(a1-3)]Gal(b1-4)GlcNAc(b1-2)Man
# Procedure, shortened: as §1
# [15] = molecular target: Fuc(a1-2)[Gal(a1-3)]Gal(b1-4)GlcNAc(b1-2)Man(a1-3)[Fuc(a1-2)[Gal(a1-3)]Gal(b1-4)GlcNAc(b1-2)Man(a1-6)]Man(b1-4)GlcNAc(b1-4)GlcNAc
# Procedure, shortened: as §1
# [16] = molecular target: Fuc(a1-2)[Gal(a1-3)]Gal(b1-4)GlcNAc(b1-2)Man(a1-3)[Fuc(a1-2)[Gal(a1-3)]Gal(b1-4)GlcNAc(b1-2)Man(a1-6)]Man(b1-4)GlcNAc(b1-4)[Fuc(a1-6)]GlcNAc
# Procedure, shortened: as §1
# [17] = molecular target: Fuc(a1-2)[Gal(a1-3)]Gal(b1-4)GlcNAc(b1-3)GalNAc
# Procedure, shortened: as §1
# [18] = molecular target: Fuc(a1-2)[Gal(a1-3)]Gal(b1-4)GlcNAc(b1-3)[Fuc(a1-2)[Gal(a1-3)]Gal(b1-4)GlcNAc(b1-6)]GalNAc
# Procedure, shortened: as §1
# [19] = molecular target: Fuc(a1-2)[Gal(a1-3)]Gal(b1-4)GlcNAc(b1-6)GalNAc
# Procedure, shortened: as §1
# [20] = molecular target: Fuc(a1-2)[Gal(a1-3)]Gal(b1-4)[Fuc(a1-3)]Glc
# Procedure, shortened: as §1
# [21] = molecular target: Fuc(a1-2)[Gal(a1-3)]Gal(b1-4)[Fuc(a1-3)]GlcNAc
# Procedure, shortened: as §1
# [22] = molecular target: Fuc(a1-2)[Gal(a1-3)]Gal(b1-4)[Fuc(a1-3)]GlcNAc(b1-3)GalNAc
# Procedure, shortened: as §1
# [23] = molecular target: Fuc(a1-2)[Gal(a1-4)]Gal(b1-4)GlcNAc
# Procedure, shortened: as §1
# [24] = molecular target: Fuc(a1-2)[GalNAc(a1-3)]Gal
# Procedure, shortened: as §1
# [25] = molecular target: Fuc(a1-2)[GalNAc(a1-3)]Gal(b1-3)GalNAc(a1-3)[Fuc(a1-2)]Gal(b1-4)GlcNAc
# Procedure, shortened: as §1
# [26] = molecular target: Fuc(a1-2)[GalNAc(a1-3)]Gal(b1-3)GalNAc(b1-3)Gal(a1-4)Gal(b1-4)Glc
# Procedure, shortened: as §1
# [27] = molecular target: Fuc(a1-2)[GalNAc(a1-3)]Gal(b1-3)GlcNAc
# Procedure, shortened: as §1
# [28] = molecular target: Fuc(a1-2)[GalNAc(a1-3)]Gal(b1-3)GlcNAc(b1-2)Man(a1-3)[Fuc(a1-2)[GalNAc(a1-3)]Gal(b1-3)GlcNAc(b1-2)Man(a1-6)]Man(b1-4)GlcNAc(b1-4)GlcNAc
# Procedure, shortened: as §1
# [29] = molecular target: Fuc(a1-2)[GalNAc(a1-3)]Gal(b1-3)GlcNAc(b1-2)Man(a1-3)[Fuc(a1-2)[GalNAc(a1-3)]Gal(b1-3)GlcNAc(b1-2)Man(a1-6)]Man(b1-4)GlcNAc(b1-4)[Fuc(a1-6)]GlcNAc
# Procedure, shortened: as §1
# [30] = molecular target: Fuc(a1-2)[GalNAc(a1-3)]Gal(b1-3)GlcNAc(b1-3)GalNAc
# Procedure, shortened: as §1
# [31] = molecular target: Fuc(a1-2)[GalNAc(a1-3)]Gal(b1-3)GlcNAc(b1-6)GalNAc
# Procedure, shortened: as §1
# [32] = molecular target: Fuc(a1-2)[GalNAc(a1-3)]Gal(b1-4)Glc
# Procedure, shortened: as §1
# [33] = molecular target: Fuc(a1-2)[GalNAc(a1-3)]Gal(b1-4)GlcNAc
# Procedure, shortened: as §1
# [34] = molecular target: Fuc(a1-2)[GalNAc(a1-3)]Gal(b1-4)GlcNAc(b1-2)Man
# Procedure, shortened: as §1
# [35] = molecular target: Fuc(a1-2)[GalNAc(a1-3)]Gal(b1-4)GlcNAc(b1-2)Man(a1-3)[Fuc(a1-2)[GalNAc(a1-3)]Gal(b1-4)GlcNAc(b1-2)Man(a1-6)]Man(b1-4)GlcNAc(b1-4)GlcNAc
# Procedure, shortened: as §1
# [36] = molecular target: Fuc(a1-2)[GalNAc(a1-3)]Gal(b1-4)GlcNAc(b1-2)Man(a1-3)[Fuc(a1-2)[GalNAc(a1-3)]Gal(b1-4)GlcNAc(b1-2)Man(a1-6)]Man(b1-4)GlcNAc(b1-4)[Fuc(a1-6)]GlcNAc
# Procedure, shortened: as §1
# [37] = molecular target: Fuc(a1-2)[GalNAc(a1-3)]Gal(b1-4)GlcNAc(b1-3)Gal(b1-4)GlcNAc
# Procedure, shortened: as §1
# [38] = molecular target: Fuc(a1-2)[GalNAc(a1-3)]Gal(b1-4)GlcNAc(b1-3)Gal(b1-4)GlcNAc(b1-3)Gal(b1-4)GlcNAc
# Procedure, shortened: as §1
# [39] = molecular target: Fuc(a1-2)[GalNAc(a1-3)]Gal(b1-4)GlcNAc(b1-3)GalNAc
# Procedure, shortened: as §1
# [40] = molecular target: Fuc(a1-2)[GalNAc(a1-3)]Gal(b1-4)GlcNAc(b1-3)[Fuc(a1-2)[GalNAc(a1-3)]Gal(b1-4)GlcNAc(b1-6)]GalNAc
# Procedure, shortened: as §1
# [41] = molecular target: Fuc(a1-2)[GalNAc(a1-3)]Gal(b1-4)GlcNAc(b1-6)GalNAc
# Procedure, shortened: as §1
# [42] = molecular target: Fuc(a1-2)[GalNAc(a1-3)]Gal(b1-4)[Fuc(a1-3)]GlcNAc
# Procedure, shortened: as §1
# [43] = molecular target: Fuc(a1-2)[GalNAc(a1-3)]Gal(b1-4)[Fuc(a1-3)]GlcNAc(b1-3)GalNAc
# Procedure, shortened: as §1
# [44] = molecular target: Fuc(a1-2)[GalNAc(a1-4)]Gal(b1-4)GlcNAc
# Procedure, shortened: as §1
# [45] = molecular target: Fuc(a1-2)[GalNAc(b1-3)]Gal
# Procedure, shortened: as §1
binder,measurement,setting,value
B1,glycan array binding signal (z-score),[1],1.43
same,glycan array binding signal (z-score),[2],-0.98
same,glycan array binding signal (z-score),[3],-0.663
same,glycan array binding signal (z-score),[4],0.547
same,glycan array binding signal (z-score),[5],0.087
same,glycan array binding signal (z-score),[6],-0.934
same,glycan array binding signal (z-score),[7],0.389
same,glycan array binding signal (z-score),[8],-0.152
same,glycan array binding signal (z-score),[9],-1.06
same,glycan array binding signal (z-score),[10],-1.58
same,glycan array binding signal (z-score),[11],-1.45
same,glycan array binding signal (z-score),[12],0.613
same,glycan array binding signal (z-score),[13],-0.058
same,glycan array binding signal (z-score),[14],-0.674
same,glycan array binding signal (z-score),[15],1.76
same,glycan array binding signal (z-score),[16],-0.587
same,glycan array binding signal (z-score),[17],0.369
same,glycan array binding signal (z-score),[18],0.599
same,glycan array binding signal (z-score),[19],-0.575
same,glycan array binding signal (z-score),[20],-0.45
same,glycan array binding signal (z-score),[21],-0.232
same,glycan array binding signal (z-score),[22],0.87
same,glycan array binding signal (z-score),[23],1.5
same,glycan array binding signal (z-score),[24],-0.789
same,glycan array binding signal (z-score),[25],1.47
same,glycan array binding signal (z-score),[26],-0.103
same,glycan array binding signal (z-score),[27],0.031
same,glycan array binding signal (z-score),[28],0.176
same,glycan array binding signal (z-score),[29],-0.853
same,glycan array binding signal (z-score),[30],0.724
same,glycan array binding signal (z-score),[31],-1.49
same,glycan array binding signal (z-score),[32],-0.583
same,glycan array binding signal (z-score),[33],-1.07
same,glycan array binding signal (z-score),[34],-0.902
same,glycan array binding signal (z-score),[35],-0.125
same,glycan array binding signal (z-score),[36],0.87
same,glycan array binding signal (z-score),[37],-0.086
same,glycan array binding signal (z-score),[38],0.157
same,glycan array binding signal (z-score),[39],0.798
same,glycan array binding signal (z-score),[40],-0.479
same,glycan array binding signal (z-score),[41],-0.558
same,glycan array binding signal (z-score),[42],1.06
same,glycan array binding signal (z-score),[43],1.89
same,glycan array binding signal (z-score),[44],0.772
same,glycan array binding signal (z-score),[45],-0.072

# Quoted from the listing (3 entries):
binder,measurement,setting,value
B1,glycan array binding signal (z-score),[40],-0.479
same,glycan array binding signal (z-score),[41],-0.558
same,glycan array binding signal (z-score),[42],1.06
